This assay has as its target 3XFLAG-TEV-CBP-Cul3 (human) (UniProt Q13618). As to the kind of experiment: affinity purification with mass spectrometry; tandem affinity purification of 3XFLAG-TEV-CBP-Cul3 from lysate of transfected HEK293 cells (RIPA buffer): anti-FLAG M2 beads, TEV cleavage, calmodulin beads, elution with EGTA; MudPIT LC/MS-MS; proteins also found with 3XFLAG-TEV-CBP-actin removed.

These are yes or no findings as the source states them, for the method shown. Binding seen in cells or lysates may run through a third protein. These calls come from enrichment with a bait or labelling near it, and not all partners need be listed.

B1: KLHL5 (protein, UniProt Q96PQ7 1-755)
chain: MNVIYFPLHIFVVYSRAYTSLVLVGCTNLCAVLFARCLDDHLVSLRMSGSRKEFDVKQILKIRWRWFGHQASSPNSTVDSQQGEFWNRGQTGANGGRKFLDPCSLQLPLASIGYRRSSQLDFQNSPSWPMASTSEVPAFEFTAEDCGGAHWLDRPEVDDGTSEEENESDSSSCRTSNSSQTLSSCHTMEPCTSDEFFQALNHAEQTFKKMENYLRHKQLCDVILVAGDRRIPAHRLVLSSVSDYFAAMFTNDVREARQEEIKMEGVEPNSLWSLIQYAYTGRLELKEDNIECLLSTACLLQLSQVVEACCKFLMKQLHPSNCLGIRSFADAQGCTDLHKVAHNYTMEHFMEVIRNQEFVLLPASEIAKLLASDDMNIPNEETILNALLTWVRHDLEQRRKDLSKLLAYIRLPLLAPQFLADMENNVLFRDDIECQKLIMEAMKYHLLPERRPMLQSPRTKPRKSTVGTLFAVGGMDSTKGATSIEKYDLRTNMWTPVANMNGRRLQFGVAVLDDKLYVVGGRDGLKTLNTVECYNPKTKTWSVMPPMSTHRHGLGVAVLEGPMYAVGGHDGWSYLNTVERWDPQARQWNFVATMSTPRSTVGVAVLSGKLYAVGGRDGSSCLKSVECFDPHTNKWTLCAQMSKRRGGVGVTTWNGLLYAIGGHDAPASNLTSRLSDCVERYDPKTDMWTAVASMSISRDAVGVCLLGDKLYAVGGYDGQAYLNTVEAYDPQTNEWTQVAPLCLGRAGACVVTVKL
For B1, the binding entry was “binds”.

The values are drawn from publication PMC4107866.
